Experimental findings from article PMC5572705 are described below.

Protein sequences, listed by entry. Tags and fused reporters are not part of them.
UniProt Q13547: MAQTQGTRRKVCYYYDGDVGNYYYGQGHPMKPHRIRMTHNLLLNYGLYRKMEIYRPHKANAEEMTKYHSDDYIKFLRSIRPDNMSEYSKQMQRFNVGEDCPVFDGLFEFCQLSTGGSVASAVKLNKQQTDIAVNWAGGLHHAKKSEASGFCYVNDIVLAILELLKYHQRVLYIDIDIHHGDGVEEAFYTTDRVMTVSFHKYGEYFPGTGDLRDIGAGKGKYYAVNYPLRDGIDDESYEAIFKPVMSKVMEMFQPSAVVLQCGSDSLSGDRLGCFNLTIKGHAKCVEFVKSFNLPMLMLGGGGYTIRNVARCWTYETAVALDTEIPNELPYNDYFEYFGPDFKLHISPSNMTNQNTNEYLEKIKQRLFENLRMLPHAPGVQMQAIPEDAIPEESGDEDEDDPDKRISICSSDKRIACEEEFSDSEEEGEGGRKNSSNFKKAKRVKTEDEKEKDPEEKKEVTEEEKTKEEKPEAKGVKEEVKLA
UniProt P51532: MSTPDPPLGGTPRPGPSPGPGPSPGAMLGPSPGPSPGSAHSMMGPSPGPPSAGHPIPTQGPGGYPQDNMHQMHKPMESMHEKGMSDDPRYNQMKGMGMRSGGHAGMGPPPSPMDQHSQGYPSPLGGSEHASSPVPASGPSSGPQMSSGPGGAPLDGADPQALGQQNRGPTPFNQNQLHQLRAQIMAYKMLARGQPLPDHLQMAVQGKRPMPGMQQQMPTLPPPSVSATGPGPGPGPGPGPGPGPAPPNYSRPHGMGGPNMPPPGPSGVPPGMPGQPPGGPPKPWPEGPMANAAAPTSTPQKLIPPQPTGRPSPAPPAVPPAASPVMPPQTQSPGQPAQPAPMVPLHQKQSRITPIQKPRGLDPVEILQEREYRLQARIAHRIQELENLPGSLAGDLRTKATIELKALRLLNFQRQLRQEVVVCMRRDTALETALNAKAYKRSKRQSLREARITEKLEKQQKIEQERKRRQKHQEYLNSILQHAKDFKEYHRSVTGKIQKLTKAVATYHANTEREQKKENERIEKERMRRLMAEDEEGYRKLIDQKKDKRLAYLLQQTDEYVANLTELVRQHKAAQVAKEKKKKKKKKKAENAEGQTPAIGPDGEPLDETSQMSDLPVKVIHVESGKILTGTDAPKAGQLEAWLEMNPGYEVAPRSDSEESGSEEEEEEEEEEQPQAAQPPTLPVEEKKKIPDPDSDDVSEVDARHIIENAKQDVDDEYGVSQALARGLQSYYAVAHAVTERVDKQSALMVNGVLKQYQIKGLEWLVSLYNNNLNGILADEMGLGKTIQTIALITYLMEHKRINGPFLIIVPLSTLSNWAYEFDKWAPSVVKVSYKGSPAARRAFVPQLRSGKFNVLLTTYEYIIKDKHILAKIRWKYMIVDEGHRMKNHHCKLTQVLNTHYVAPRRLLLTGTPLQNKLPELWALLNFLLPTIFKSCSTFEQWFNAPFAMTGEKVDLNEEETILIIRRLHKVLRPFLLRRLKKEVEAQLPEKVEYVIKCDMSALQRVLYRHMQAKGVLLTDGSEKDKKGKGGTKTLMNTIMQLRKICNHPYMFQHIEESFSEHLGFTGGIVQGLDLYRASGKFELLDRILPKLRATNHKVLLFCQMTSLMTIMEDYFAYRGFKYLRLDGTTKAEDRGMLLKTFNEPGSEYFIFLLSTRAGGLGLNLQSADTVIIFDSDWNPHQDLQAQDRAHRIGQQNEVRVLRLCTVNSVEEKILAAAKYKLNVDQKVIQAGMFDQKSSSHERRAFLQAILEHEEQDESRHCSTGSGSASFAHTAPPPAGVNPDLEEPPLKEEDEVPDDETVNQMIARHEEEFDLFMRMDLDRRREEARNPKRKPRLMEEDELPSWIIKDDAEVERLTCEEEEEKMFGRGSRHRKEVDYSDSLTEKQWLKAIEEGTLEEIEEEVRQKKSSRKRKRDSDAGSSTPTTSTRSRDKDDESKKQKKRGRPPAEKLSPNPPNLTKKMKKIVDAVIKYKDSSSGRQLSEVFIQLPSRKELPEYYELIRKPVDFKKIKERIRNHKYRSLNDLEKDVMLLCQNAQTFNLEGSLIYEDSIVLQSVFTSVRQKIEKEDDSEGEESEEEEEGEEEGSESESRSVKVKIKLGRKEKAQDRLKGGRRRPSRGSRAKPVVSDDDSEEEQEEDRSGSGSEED
UniProt P51531: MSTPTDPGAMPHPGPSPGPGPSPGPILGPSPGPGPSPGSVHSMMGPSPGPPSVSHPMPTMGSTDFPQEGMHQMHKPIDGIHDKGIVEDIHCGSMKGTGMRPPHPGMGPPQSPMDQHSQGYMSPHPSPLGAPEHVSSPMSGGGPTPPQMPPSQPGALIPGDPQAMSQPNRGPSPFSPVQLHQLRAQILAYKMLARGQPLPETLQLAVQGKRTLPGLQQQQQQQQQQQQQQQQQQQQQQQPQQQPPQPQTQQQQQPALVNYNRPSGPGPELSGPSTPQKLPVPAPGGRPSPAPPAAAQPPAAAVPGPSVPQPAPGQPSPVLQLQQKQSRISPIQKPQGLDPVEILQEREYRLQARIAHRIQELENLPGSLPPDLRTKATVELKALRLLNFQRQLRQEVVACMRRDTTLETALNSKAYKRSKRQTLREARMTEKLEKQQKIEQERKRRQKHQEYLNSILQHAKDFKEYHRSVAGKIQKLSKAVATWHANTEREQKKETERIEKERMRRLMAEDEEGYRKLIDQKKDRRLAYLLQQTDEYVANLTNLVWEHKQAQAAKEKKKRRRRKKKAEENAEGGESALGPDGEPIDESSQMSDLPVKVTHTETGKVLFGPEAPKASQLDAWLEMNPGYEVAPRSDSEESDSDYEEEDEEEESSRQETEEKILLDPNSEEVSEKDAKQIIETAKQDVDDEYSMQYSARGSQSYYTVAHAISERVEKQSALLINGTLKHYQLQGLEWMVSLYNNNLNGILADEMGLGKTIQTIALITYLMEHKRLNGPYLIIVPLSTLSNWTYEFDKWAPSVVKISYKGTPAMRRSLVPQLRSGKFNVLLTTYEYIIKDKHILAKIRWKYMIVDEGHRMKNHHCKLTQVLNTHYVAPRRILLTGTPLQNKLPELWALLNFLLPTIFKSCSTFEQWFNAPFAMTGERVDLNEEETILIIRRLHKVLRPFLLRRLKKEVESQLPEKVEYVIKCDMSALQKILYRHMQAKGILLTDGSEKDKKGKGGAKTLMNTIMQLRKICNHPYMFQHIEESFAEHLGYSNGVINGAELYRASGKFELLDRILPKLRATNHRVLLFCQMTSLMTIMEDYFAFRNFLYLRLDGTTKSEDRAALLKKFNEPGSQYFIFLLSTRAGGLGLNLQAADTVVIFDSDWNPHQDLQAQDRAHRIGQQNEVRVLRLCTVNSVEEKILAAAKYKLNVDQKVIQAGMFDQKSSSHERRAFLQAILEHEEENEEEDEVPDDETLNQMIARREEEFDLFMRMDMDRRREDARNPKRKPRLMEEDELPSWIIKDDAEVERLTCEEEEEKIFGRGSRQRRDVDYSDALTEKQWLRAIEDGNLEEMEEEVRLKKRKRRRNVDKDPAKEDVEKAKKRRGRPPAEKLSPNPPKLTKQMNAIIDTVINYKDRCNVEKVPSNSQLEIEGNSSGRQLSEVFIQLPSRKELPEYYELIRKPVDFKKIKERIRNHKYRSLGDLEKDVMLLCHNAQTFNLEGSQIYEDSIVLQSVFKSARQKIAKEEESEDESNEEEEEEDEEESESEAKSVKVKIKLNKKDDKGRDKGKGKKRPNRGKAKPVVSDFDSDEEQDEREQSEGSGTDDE
UniProt Q16254: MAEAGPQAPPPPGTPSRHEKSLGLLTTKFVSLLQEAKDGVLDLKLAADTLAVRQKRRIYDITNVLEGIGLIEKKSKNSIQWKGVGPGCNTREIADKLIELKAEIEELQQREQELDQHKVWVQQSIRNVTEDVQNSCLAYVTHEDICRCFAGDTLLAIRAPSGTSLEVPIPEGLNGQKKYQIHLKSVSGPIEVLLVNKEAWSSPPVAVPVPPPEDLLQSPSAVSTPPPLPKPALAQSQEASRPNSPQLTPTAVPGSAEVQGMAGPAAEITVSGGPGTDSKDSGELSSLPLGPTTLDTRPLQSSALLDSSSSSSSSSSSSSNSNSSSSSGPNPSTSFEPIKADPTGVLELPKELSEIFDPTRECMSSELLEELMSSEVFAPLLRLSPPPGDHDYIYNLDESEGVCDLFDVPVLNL
UniProt Q08999: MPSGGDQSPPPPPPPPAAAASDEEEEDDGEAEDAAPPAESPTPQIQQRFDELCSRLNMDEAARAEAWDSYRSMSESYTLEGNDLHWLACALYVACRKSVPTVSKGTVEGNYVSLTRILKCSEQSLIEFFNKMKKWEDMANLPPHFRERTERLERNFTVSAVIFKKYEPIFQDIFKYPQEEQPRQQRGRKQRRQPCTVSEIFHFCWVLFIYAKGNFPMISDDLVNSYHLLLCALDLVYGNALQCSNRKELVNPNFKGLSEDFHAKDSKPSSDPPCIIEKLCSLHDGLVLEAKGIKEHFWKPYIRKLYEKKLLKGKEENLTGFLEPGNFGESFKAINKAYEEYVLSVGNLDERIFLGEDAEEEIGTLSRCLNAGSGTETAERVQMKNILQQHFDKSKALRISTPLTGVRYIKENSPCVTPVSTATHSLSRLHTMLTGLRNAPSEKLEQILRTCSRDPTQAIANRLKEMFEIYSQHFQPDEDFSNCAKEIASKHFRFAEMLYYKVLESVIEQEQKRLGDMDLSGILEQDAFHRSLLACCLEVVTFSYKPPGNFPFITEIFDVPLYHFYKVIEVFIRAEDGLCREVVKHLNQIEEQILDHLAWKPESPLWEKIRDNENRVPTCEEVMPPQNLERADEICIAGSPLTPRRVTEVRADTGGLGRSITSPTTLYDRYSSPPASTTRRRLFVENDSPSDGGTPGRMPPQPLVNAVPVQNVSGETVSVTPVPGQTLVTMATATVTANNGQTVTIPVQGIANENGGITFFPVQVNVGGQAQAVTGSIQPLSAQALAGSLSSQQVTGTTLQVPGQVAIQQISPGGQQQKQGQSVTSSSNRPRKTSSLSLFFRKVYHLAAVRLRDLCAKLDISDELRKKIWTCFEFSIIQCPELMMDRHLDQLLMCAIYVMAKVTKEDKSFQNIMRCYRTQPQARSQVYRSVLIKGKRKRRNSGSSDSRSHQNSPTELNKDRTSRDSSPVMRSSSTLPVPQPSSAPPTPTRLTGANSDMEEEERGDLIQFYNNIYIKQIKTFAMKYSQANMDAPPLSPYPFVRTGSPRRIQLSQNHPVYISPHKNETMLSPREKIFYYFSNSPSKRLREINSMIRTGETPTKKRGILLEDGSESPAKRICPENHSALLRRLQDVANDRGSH

This assay concerns the target HDAC1 (histone deacetylase-1) (human (endogenous in THP-1)) (UniProt Q13547). In words: co-IP; 1 mg total cell lysate in IP buffer (20 mM HEPES pH 7.9, 75 mM KCl, 2.5 mM MgCl2, 0.1% NP-40) with 5 ug anti-HDAC1 rabbit antibody, 4 C, 3 h; Dynabeads Protein G; five washes; western blot of co-precipitated proteins; cells differentiated (Fig. 3i) or arrested in G1 with mimosine (Fig. 4j).

Results are given in words; binding and its absence hold for the method and conditions named. In cells and extracts the contact can be indirect. Some results given as binding are weak or reduced against the parent protein; the word gives no strength.

For “BRG1 (SWI/SNF) (from UniProt P51532 1-1647) (enzyme)”, the binding entry is recorded as “binds”.

Consider “BRM (SWI/SNF) (from UniProt P51531 1-1590) (enzyme)”, for which the binding result was “binds”.

Consider E2F4 (from UniProt Q16254 1-413), for which the binding entry was “binds”.

Regarding RBL2/p130 (from UniProt Q08999 1-1139), the binding result is on record as “binds”.
